From PMC12714281
These are yes or no findings as the source states them, for the method shown. In cells and extracts the contact can be indirect. Some entries that bind do so weakly or less than the wild type. Sequences can lack the tags named with a protein.

Protein sequences, listed by entry. Tags and fused reporters are not part of them. Lines headed by an entry give the natural chain unless they say otherwise; changes in a name come on top.
UniProt Q9Z2L0: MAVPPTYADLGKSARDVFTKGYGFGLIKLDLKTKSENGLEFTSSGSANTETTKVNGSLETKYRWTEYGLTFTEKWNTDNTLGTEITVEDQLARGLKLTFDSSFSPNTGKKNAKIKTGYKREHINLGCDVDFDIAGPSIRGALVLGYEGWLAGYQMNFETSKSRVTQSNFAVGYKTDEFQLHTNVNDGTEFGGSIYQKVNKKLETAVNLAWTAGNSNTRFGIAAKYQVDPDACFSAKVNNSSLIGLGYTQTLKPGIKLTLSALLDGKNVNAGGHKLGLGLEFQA
UniProt P21796: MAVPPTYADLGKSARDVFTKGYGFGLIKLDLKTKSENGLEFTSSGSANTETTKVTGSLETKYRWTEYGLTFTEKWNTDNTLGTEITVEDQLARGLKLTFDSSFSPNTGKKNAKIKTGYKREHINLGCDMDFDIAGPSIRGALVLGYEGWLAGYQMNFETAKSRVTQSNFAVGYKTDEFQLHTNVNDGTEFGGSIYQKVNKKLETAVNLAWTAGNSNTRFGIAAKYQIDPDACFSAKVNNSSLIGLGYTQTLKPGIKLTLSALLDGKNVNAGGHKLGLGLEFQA

T1: HA-Flag-TMEM43 wild type, stably expressed in H9c2 cells (UniProt Q9BTV4)
T1 sequence: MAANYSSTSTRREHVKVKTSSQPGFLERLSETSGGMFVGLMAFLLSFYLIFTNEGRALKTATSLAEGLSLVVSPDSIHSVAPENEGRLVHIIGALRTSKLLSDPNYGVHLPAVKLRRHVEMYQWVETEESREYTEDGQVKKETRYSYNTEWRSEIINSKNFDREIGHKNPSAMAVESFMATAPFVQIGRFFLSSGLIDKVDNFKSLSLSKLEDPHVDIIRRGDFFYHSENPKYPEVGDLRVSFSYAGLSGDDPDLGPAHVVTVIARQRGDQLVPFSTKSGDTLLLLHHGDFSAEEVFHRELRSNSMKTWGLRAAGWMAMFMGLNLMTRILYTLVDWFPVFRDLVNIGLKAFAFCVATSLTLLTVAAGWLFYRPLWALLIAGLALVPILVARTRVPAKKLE

T2: HA-Flag-TMEM43 S358L mutant, stably expressed in H9c2 cells (UniProt Q9BTV4)
T2 sequence: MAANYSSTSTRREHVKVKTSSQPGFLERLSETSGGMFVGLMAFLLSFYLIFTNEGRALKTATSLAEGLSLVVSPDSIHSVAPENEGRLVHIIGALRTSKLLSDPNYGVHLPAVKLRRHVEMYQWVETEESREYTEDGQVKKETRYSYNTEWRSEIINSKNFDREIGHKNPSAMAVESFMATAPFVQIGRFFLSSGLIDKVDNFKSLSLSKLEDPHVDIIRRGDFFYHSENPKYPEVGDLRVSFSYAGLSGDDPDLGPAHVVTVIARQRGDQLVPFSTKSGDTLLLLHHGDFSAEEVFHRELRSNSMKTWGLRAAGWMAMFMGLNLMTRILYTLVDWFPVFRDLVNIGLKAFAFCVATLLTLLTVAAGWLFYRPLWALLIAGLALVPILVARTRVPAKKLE

T3: HA-TMEM43, co-transfected in 293T cells (UniProt Q9BTV4)
T3 sequence: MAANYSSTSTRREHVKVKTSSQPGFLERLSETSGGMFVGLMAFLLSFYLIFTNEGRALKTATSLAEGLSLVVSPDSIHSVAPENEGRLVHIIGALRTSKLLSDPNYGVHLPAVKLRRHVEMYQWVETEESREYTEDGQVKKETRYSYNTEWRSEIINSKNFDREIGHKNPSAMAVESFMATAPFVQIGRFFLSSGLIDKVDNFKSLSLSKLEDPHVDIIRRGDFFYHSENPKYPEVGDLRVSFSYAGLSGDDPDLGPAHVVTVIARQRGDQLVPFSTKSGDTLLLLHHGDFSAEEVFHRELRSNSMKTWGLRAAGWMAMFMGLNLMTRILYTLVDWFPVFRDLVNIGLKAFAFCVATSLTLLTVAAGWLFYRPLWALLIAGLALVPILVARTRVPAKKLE


Assays:
[1] = biological target: T1, HA-Flag-TMEM43 wild type, stably expressed in H9c2 cells; assay: co-IP; H9c2 cells with vector, HA-Flag-TMEM43 WT or S358L; lysates of same protein amounts on anti-FLAG M2 Affinity Gel; immunoblotting of VDAC1, VDAC2 and Flag
[2] = biological target: T2, HA-Flag-TMEM43 S358L mutant, stably expressed in H9c2 cells; assay: as above
[3] = biological target: T3, HA-TMEM43, co-transfected in 293T cells; assay: co-IP; 293T cells co-transfected with Flag-VDAC1/2 full-length or domains and HA-TMEM43; IP of the lysates with HA antibody

binding [1]	binding [2]	binding [3]	Molecule
binds	binds		VDAC1, endogenous in H9c2 cells (from UniProt Q9Z2L0 1-283)
		binds	Flag-VDAC1 Aa50–200 (from UniProt P21796 50-200) (domain or fragment)
		binds	Flag-VDAC1 full-length (FL) (from UniProt P21796 1-283)
binds	binds		VDAC2, endogenous in H9c2 cells (protein, UniProt P81155 1-295) MAECCVPVCQRPICIPPPYADLGKAARDIFNKGFGFGLVKLDVKTKSCSGVEFSTSGSSNTDTGKVSGTLETKYKWCEYGLTFTEKWNTDNTLGTEIAIEDQICQGLKLTFDTTFSPNTGKKSGKIKSAYKRECINLGCDVDFDFAGPAIHGSAVFGYEGWLAGYQMTFDSAKSKLTRSNFAVGYRTGDFQLHTNVNNGTEFGGSIYQKVCEDFDTSVNLAWTSGTNCTRFGIAAKYQLDPTASISAKVNNSSLIGVGYTQTLRPGVKLTLSALVDGKSFNAGGHKLGLALELEA
